According to patent US11779606B2, “Peptides and combination of peptides of non-canonical origin for use in immunotherapy against different types of cancers” (Immatics Biotechnologies GmbH, priority 2018, dated 2023):

System: tumor samples
Experiment: Absolute quantitation of TUMAP copies per cell by nano LC-MS/MS
Parameters: species or system human
Details: absolute peptide quantitation in tumor samples
Text: Absolute quantitation of tumor associated peptides presented on the cell surface The generation of binders, such as antibodies and/or TCRs, is a laborious process, which may be conducted only for a number of selected targets. In the case of tumor-associated and -specific peptides, selection criteria include but are not restricted to exclusiveness of presentation and the density of peptide presented on the cell surface. In addition to the isolation and relative quantitation of peptides as described in EXAMPLE 1, the inventors did analyze absolute peptide copies per cell as described in WO 2016/107740. The quantitation of TUMAP copies per cell in solid tumor samples requires the absolute quantitation of the isolated TUMAP, the efficiency of the TUMAP isolation process, and the cell count of the tissue sample analyzed.
For an accurate quantitation of peptides by mass spectrometry, a calibration curve was generated for each individual peptide using two different isotope labeled peptide variants (one or two isotope-labeled amino acids are included during TUMAP synthesis). These isotopes labeled variants differ from the tumor-associated peptide only in their mass but show no difference in other physicochemical properties (Anderson et al., 2012). For the peptide calibration curve, a series of nano LC-MS/MS measurements was performed to determine the ration of MS/MS signals of titrated (singly isotope-labeled peptide) to constant (doubly isotope labeled peptide) isotope labeled peptides.
The doubly isotope labeled peptide, also called internal standard, was further spiked to each MS sample and all MS signals were normalized to the MS signal of the internal standard to level out potential technical variances between MS experiments.
The calibration curves were prepared in at least three different matrices, i.e. HLA peptide eluates from natural samples similar to the routine MS samples, and each preparation was measured in duplicate MS runs. For evaluation, MS signals were normalized to the signal of the internal standard and a calibration curve was calculated by logistic regression.
For the quantitation of tumor-associated peptides from tissue samples, the respective samples were also spiked with the internal standard; the MS signals were normalized to the internal standard and quantified using the peptide calibration curve.
As for any protein purification process, the isolation of proteins from tissue samples is associated with a certain loss of the protein of interest. To determine the efficiency of TUMAP isolation, peptide/MHC complexes were generated for all TUMAPs selected for absolute quantitation. To be able to discriminate the spiked from the natural peptide/MHC complexes, single-isotope-labelled versions of the TUMAPs were used, i.e. one isotope-labelled amino acid was included in TUMAP synthesis. These complexes were spiked into the freshly prepared tissue lysates, i.e. at the earliest possible point of the TUMAP isolation procedure, and then captured like the natural peptide/MHC complexes in the following affinity purification. Measuring the recovery of the single-labelled TUMAPs therefore allows conclusions regarding the efficiency of isolation of individual natural TUMAPs.
In contrast, the isolation efficiency differs between individual peptides. […] However, it is necessary to analyze each TUMAP individually as the isolation efficiency may not be extrapolated from one peptide to others.
In order to determine the cell count of the tissue samples subjected to absolute peptide quantitation, the inventors applied DNA content analysis. This method is applicable to a wide range of samples of different origin and, most importantly, frozen samples (Alcoser et al., 2011; Forsey and Chaudhuri, 2009; Silva et al., 2013). During the peptide isolation protocol, a tissue sample is processed to a homogenous lysate, from which a small lysate aliquot is taken. […]

Substance | Copies per cell (median)
1 (KLLDFSTRI; listed as Homo sapiens) [compound 1] | +++ (≥50 = +++)
2 (ALLDVLVKL; listed as Homo sapiens) [compound 2] | ++++ (≥75 = ++++)
4 (YLGDSHVLL; listed as Homo sapiens) [compound 4] | + (<25 = +)
5 (LVWEVVESV; listed as Homo sapiens) [compound 5] | ++++ (≥75 = ++++)
6 (ALHDSPVYL; listed as Homo sapiens) [compound 6] | + (<25 = +)
7 (ALWEEVKATSL; listed as Homo sapiens) [compound 7] | + (<25 = +)
8 (ILQSLVPAA; listed as Homo sapiens) [compound 8] | ++++ (≥75 = ++++)
9 (FLQEGDLISV; listed as Homo sapiens) [compound 9] | ++ (≥25 = ++)
10 (SLLDKLSGI; listed as Homo sapiens) [compound 10] | + (<25 = +)
11 (ALLPHAPEAV; listed as Homo sapiens) [compound 11] | + (<25 = +)
39 (YIYEDEVRL; listed as Homo sapiens) [compound 39] | ++ (≥25 = ++)
96 (KIIEDLANTV; listed as Homo sapiens) [compound 96] | ++ (≥25 = ++)
97 (GLIDDKGTIKL; listed as Homo sapiens) [compound 97] | ++ (≥25 = ++)
100 (SLGPPPVGV; listed as Homo sapiens) [compound 100] | + (<25 = +)
